{
  "source": "paper PMC8553094",
  "binders": {"B1": {"name": "GFP-hSSX2IP (protein, UniProt Q9Y2D8 1-614)", "chain": "MGDWMTVTDPGLSSESKTISQYTSETKMSPSSLYSQQVLCSSIPLSKNVHSFFSAFCTEDNIEQSISYLDQELTTFGFPSLYEESKGKETKRELNIVAVLNCMNELLVLQRKNLLAQENVETQNLKLGSDMDHLQSCYSKLKEQLETSRREMIGLQERDRQLQCKNRNLHQLLKNEKDEVQKLQNIIASRATQYNHDMKRKEREYNKLKERLHQLVMNKKDKKIAMDILNYVGRADGKRGSWRTGKTEARNEDEMYKILLNDYEYRQKQILMENAELKKVLQQMKKEMISLLSPQKKKPRERVDDSTGTVISDVEEDAGELSRESMWDLSCETVREQLTNSIRKQWRILKSHVEKLDNQVSKVHLEGFNDEDVISRQDHEQETEKLELEIQQCKEMIKTQQQLLQQQLATAYDDDTTSLLRDCYLLEEKERLKEEWSLFKEQKKNFERERRSFTEAAIRLGLERKAFEEERASWLKQQFLNMTTFDHQNSENVKLFSAFSGSSDWDNLIVHSRQPQKKPHSVSNGSPVCMSKLTKSLPASPSTSDFCQTRSCISEHSSINVLNITAEEIKPNQVGGECTNQKWSVASRPGSQEGCYSGCSLSYTNSHVEKDDLP"}},
  "key": {"Flag-Wtip (Xenopus)": {"target": "Flag-Wtip (Xenopus) (UniProt A9LS46)", "assay": "co-IP; Xenopus embryos coinjected with RNAs (300 pg each) and lysed at stage 11 (1% Triton X-100, 50 mM NaCl, 50 mM Tris-HCl pH 7.6, 1 mM EDTA); anti-Flag M2 agarose beads overnight at 4°C; immunoblot for Flag and GFP"}, "Flag-WtipN (Xenopus)": {"target": "T1, Flag-WtipN (Xenopus) (UniProt A9LS46)", "T1 sequence": "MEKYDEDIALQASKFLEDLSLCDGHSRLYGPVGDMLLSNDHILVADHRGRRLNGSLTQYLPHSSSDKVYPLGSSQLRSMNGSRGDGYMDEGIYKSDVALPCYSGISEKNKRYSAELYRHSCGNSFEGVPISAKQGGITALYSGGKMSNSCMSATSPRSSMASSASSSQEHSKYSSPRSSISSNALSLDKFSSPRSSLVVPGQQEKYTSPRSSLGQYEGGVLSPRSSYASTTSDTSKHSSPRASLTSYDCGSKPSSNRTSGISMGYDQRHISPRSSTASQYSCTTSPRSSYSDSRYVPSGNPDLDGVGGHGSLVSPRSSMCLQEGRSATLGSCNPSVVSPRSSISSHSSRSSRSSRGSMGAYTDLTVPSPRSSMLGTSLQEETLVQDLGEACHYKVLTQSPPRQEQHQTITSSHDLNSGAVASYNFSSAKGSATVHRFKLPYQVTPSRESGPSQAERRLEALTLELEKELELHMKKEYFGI", "assay": "co-IP; Xenopus embryos coinjected with RNAs (300 pg each) and lysed at stage 11 (1% Triton X-100, 50 mM NaCl, 50 mM Tris-HCl pH 7.6, 1 mM EDTA); anti-Flag M2 agarose beads overnight at 4°C; immunoblot for Flag and GFP"}},
  "note": "Results are given in words; binding and its absence hold for the method and conditions named. In cells and extracts the contact can be indirect. Some results given as binding are weak or reduced against the parent protein; the word gives no strength. Where a sequence is shown, tags or fusion partners need not be part of it.",
  "data": [
    {"binder": "B1", "values": [
      {"measurement": "binding", "setting": "Flag-Wtip (Xenopus)", "value": "binds"},
      {"measurement": "binding", "setting": "Flag-WtipN (Xenopus)", "value": "binds"}
    ]}
  ]
}
